Test results published in article PMC2955532.
No constants are given. Whether binding was seen depends on the method and setting. Binding seen in cells or lysates may run through a third protein. For some assays here: A result given as binding can be weak or reduced; the word gives no strength.

Protein sequences, listed by entry. Tags and fused reporters are not part of them. Lines headed by an entry give the natural chain unless they say otherwise; changes in a name come on top.
UniProt P35613: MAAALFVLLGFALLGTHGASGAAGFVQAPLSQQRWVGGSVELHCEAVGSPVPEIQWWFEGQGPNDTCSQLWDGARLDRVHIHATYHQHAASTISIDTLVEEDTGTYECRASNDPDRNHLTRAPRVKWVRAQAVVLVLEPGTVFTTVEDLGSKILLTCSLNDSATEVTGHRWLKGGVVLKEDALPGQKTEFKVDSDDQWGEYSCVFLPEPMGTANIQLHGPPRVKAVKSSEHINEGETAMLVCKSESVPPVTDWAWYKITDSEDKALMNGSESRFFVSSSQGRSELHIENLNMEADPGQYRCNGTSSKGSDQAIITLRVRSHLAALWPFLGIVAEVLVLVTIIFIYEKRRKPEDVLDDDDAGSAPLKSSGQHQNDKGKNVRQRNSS

Key:
[1] = target: CD147 (human (endogenous in primary EEC)) (UniProt P35613); test: co-IP; confluent primary EEC monolayers lysed in Tris-buffered saline with 1% Brij 96, 1 mM CaCl2, 1 mM MgCl2 and protease inhibitors; 5 µg antibody coupled to protein-G-Sepharose; six washes with lysis buffer; non-reducing SDS-PAGE and Western blot; non-immune Ig as negative control
[2] = target: CD147 (human (endogenous in primary EEC)), P35613; test: as above; settings: remark: other sources report otherwise

| Molecule | binding [1] | binding [2] |
| --- | --- | --- |
| CD98 heavy chain (from UniProt P08195 1-529) | binds weakly | – |
| tetraspanin CD9, P21926 1-228 (protein) MPVKGGTKCIKYLLFGFNFIFWLAGIAVLAIGLWLRFDSQTKSIFEQETNNNNSSFYTGVYILIGAGALMMLVGFLGCCGAVQESQCMLGLFFGFLLVIFAIEIAAAIWGYSHKDEVIKEVQEFYKDTYNKLKTKDEPQRETLKAIHYALNCCGLAGGVEQFISDICPKKDVLETFTVKSCPDAIKEVFDNKFHIIGAVGIGIAVVMIFGMIFSMILCCAIRRNREMV | – | no binding |
